The other results are listed elsewhere or left out.
molecular target: ZNF428 (UniProt M0QXZ5); assay: log2 fold change, soluble protein after heating vs DMSO (PISA); higher = thermal stabilisation; K562 cells, 10 uM, 30 min; active = over 0.2 and 3.5 SD of the protein, either way, in both replicates (recomputed)
Method in brief: (§1)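 Thermal stability values are relative to control samples and come from duplicates. They are expressed as log2 fold changes. For measurement, K562 cells (2×10^6 cells/mL) received 10 μM compound for 30 min, and aliquots were heated for 3 min over 48°C-58°C, pooled, and extracted at 4°C in PBS with 0.5% NP-40. Soluble protein, the supernatant after 21,000xg for 90 min, was quantified by TMTpro 16plex LC-MS/MS with equalised channel sums.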

Protein sequences, listed by entry. Tags and fused reporters are not part of them. Lines headed by an entry give the natural chain unless they say otherwise; changes in a name come on top.
UniProt Q8N0Y2: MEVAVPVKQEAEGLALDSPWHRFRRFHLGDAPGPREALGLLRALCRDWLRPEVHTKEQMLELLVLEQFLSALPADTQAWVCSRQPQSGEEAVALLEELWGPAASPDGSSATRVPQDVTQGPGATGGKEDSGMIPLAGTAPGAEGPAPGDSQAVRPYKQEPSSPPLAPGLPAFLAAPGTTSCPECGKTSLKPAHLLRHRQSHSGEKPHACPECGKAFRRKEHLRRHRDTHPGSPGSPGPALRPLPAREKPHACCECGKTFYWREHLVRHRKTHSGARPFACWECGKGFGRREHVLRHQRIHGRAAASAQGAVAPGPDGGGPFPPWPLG
UniProt Q9Y4E5: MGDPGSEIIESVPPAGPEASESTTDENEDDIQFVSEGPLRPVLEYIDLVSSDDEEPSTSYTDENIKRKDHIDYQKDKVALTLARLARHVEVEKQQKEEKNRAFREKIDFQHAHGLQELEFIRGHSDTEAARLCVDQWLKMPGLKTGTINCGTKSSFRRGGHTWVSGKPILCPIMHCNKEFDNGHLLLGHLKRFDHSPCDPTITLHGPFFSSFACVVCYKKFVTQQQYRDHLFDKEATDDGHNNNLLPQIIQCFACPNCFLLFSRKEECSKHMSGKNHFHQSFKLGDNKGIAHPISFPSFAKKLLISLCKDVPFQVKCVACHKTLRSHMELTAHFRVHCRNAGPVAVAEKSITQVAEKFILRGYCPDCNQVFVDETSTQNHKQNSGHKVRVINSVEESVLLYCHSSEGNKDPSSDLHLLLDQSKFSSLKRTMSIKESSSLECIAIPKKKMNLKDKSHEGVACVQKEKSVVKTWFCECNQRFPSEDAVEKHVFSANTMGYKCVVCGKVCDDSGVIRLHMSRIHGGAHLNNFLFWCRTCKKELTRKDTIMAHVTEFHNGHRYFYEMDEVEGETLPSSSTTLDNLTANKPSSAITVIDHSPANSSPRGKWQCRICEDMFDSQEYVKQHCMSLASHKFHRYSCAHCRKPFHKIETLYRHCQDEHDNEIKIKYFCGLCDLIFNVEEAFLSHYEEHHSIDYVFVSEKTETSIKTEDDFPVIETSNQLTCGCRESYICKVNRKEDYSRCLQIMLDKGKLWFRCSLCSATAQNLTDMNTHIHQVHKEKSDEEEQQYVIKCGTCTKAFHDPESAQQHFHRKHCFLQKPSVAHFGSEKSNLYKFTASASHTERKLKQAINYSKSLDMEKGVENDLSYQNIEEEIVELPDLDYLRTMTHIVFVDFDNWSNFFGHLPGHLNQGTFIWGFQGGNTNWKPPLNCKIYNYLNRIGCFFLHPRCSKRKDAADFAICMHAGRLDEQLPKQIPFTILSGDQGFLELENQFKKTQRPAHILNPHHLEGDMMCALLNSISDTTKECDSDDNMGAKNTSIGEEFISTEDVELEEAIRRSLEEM

log2 fold change, inactive:
COc1cc2nc(-c3cc(F)ccc3O)nc(N[C@@H]3CNC[C@H]3C(C)(C)O)c2cc1OC -0.061
C[C@@H]1COCCN1c1cc(C2(S(C)(=O)=O)CC2)nc(-c2cccc3[nH]ccc23)n1 -0.005
CON(C)C(=O)N1N=C(c2cc(F)ccc2F)S[C@@]1(CCCN)c1ccccc1 [filanesib] -0.022
Cc1cc(Nc2cc(CN3CCOCC3)c3nc(C)c(Cc4ccc(Cl)cc4F)n3n2)n[nH]1 [gandotinib] 0.016
Cc1ccc(NC(=O)c2cccc(C(C)(C)C#N)c2)cc1Nc1ccc2ncn(C)c(=O)c2c1 0.077
CS(=O)(=O)N1CCN(Cc2cc3nc(-c4cccc5[nH]ncc45)nc(N4CCOCC4)c3s2)CC1 [pictilisib] 0.036
CCn1c(C(=O)N(C2CC2)C2CC2)cc2c3c(ncn3C)c(Nc3cc(C)n(C)n3)nc21 0.01
CN1CCC(CNc2ccc3ncc(-c4cccc(OC(F)(F)F)c4)n3n2)CC1 0.002
Fc1ccc(Cl)cc1-c1nc(Nc2ccncc2)c2nccnc2n1 0.09
CN1CCN(c2nc(C3=C(c4c[nH]c5ccccc45)C(=O)NC3=O)c3ccccc3n2)CC1 [sotrastaurin] -0.027
CN1CC[C@H](c2c(O)cc(O)c3c(=O)cc(-c4ccccc4Cl)oc23)[C@H](O)C1 [alvocidib] 0
Nc1ccccc1NC(=O)c1ccc(CNC(=O)OCc2cccnc2)cc1 [entinostat] -0.05
CC[C@H](C)[C@H](NC(=O)[C@H]([C@@H](C)CC)N(C)C(C)=O)C(=O)N[C@H](C(=O)N[C@@H](CC(C)C)C(=O)[C@@]1(C)CO1)[C@@H](C)O [epoxomicin] 0.064
C[C@H](Nc1ncnc2nc[nH]c12)c1cc2cccc(Cl)c2c(=O)n1-c1ccccc1 [duvelisib] 0.104
CCn1cc(-c2ccnc3[nH]c(-c4cccc(CN(C)C)c4)cc23)c(-c2ccc(NC(=O)N(C)C)cc2)n1 -0.007

molecular target: ZNF444 (UniProt Q8N0Y2); assay: as above
Method in brief: as §1

log2 fold change, inactive:
NC(=O)Nc1cc(-c2cccc(F)c2)sc1C(=O)N[C@H]1CCCNC1 -0.007
CS(=O)(=O)c1ccc(-c2cnc(N)c(C(=O)Nc3ccccc3)n2)cc1 -0.02
Cc1ccc(Sc2cncc3sc(C(N)=O)cc23)cc1 -0.083
CS(=O)(=O)CCNCc1ccc(-c2ccc3ncnc(Nc4ccc(OCc5cccc(F)c5)c(Cl)c4)c3c2)o1 [lapatinib] 0.154
CCCS(=O)(=O)Nc1ccc(F)c(C(=O)c2c[nH]c3ncc(Cl)cc23)c1F 0.069
CC[C@@H]1C(=O)N(C)c2cnc(Nc3ccc(C(=O)N[C@H]4CC[C@H](N5CCN(CC6CC6)CC5)CC4)cc3OC)nc2N1C(C)C [volasertib] 0.116
Cn1cncc1[C@@](N)(c1ccc(Cl)cc1)c1ccc2c(c1)c(-c1cccc(Cl)c1)cc(=O)n2C [tipifarnib] 0.119
COc1cc2nc(-c3cc(F)ccc3O)nc(N[C@@H]3CNC[C@H]3C(C)(C)O)c2cc1OC 0.01
CON(C)C(=O)N1N=C(c2cc(F)ccc2F)S[C@@]1(CCCN)c1ccccc1 [filanesib] 0.228
Cc1ccc(NC(=O)c2cccc(C(C)(C)C#N)c2)cc1Nc1ccc2ncn(C)c(=O)c2c1 -0.026
CN1CCN(c2nc(C3=C(c4c[nH]c5ccccc45)C(=O)NC3=O)c3ccccc3n2)CC1 [sotrastaurin] -0.007
CN1CC[C@H](c2c(O)cc(O)c3c(=O)cc(-c4ccccc4Cl)oc23)[C@H](O)C1 [alvocidib] 0.101
Nc1ccccc1NC(=O)c1ccc(CNC(=O)OCc2cccnc2)cc1 [entinostat] -0.144

molecular target: ZNF451 (UniProt Q9Y4E5); assay: as above
Method in brief: as §1

log2 fold change, inactive:
CCCCN(Cc1ccc(C(=O)NO)cc1)C(=O)Nc1ccccc1 [Nexturastat A] 0.503
O=C1NC(=O)C(c2cnc3ccccn23)=C1c1cn2c3c(cc(F)cc13)CN(C(=O)N1CCCCC1)CC2 -0.179
CC(C)(O)CC(=O)NCCn1ccc2ncnc(Nc3ccc(Oc4cccc(C(F)(F)F)c4)c(Cl)c3)c21 -0.058
C[C@@H]1COCCN1c1cc(C2(S(C)(=O)=O)CC2)nc(-c2cccc3[nH]ccc23)n1 -0.162
Fc1ccc(Cl)cc1-c1nc(Nc2ccncc2)c2nccnc2n1 0.136
CC[C@H](C)[C@H](NC(=O)[C@H]([C@@H](C)CC)N(C)C(C)=O)C(=O)N[C@H](C(=O)N[C@@H](CC(C)C)C(=O)[C@@]1(C)CO1)[C@@H](C)O [epoxomicin] 0.079

From the supplement of paper PMC10849652
